Library screen at single concentrations

The chains behind the UniProt entries cited, without tags or fusion partners. Residues count along the entry.
UniProt P9WPC5, whole entry: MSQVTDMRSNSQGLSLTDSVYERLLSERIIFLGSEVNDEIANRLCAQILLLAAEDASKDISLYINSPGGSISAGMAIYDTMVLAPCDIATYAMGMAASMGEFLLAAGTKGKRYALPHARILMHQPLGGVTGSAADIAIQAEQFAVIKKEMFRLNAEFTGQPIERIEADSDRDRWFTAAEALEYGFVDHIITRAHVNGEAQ
UniProt P9WPC3, whole entry partner: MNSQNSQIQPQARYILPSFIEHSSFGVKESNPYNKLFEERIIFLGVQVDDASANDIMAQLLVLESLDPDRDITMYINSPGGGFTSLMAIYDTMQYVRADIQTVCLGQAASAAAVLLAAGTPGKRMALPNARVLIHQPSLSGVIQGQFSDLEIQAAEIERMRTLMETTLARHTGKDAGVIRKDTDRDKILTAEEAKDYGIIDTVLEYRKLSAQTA
UniProt P9WNZ1, whole entry: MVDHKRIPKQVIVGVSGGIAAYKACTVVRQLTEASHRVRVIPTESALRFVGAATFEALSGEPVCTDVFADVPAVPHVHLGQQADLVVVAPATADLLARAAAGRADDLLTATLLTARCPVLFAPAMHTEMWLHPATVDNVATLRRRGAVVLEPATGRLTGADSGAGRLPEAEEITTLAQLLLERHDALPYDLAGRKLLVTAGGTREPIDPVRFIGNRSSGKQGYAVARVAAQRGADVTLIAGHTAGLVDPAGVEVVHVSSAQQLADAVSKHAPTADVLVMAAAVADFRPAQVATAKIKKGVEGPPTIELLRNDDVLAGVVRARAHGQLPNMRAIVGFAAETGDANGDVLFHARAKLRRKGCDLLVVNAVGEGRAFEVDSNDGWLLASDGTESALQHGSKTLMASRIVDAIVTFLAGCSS
UniProt Q8IDJ8, 1-583: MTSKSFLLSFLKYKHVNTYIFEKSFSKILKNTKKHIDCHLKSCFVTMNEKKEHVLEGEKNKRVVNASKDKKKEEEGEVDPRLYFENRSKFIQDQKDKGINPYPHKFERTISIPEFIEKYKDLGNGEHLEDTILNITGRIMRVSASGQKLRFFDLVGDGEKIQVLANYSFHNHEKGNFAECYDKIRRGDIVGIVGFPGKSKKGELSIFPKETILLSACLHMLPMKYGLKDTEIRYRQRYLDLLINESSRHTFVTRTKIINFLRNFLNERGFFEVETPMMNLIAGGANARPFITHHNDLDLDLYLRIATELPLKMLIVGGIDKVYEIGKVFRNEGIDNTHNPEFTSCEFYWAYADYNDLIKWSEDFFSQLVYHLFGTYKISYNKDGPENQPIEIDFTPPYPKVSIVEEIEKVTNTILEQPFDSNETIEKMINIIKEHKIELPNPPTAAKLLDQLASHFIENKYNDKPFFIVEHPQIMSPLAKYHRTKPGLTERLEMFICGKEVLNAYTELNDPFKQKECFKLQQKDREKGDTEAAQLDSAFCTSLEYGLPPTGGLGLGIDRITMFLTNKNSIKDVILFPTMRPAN

From ChEMBL document CHEMBL3988442, “University of Dundee, Small-Polar-MMV Screening Library” (2021).

A: 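ClpP1P2, Mycobacterium tuberculosis (UniProt P9WPC5 and UniProt P9WPC3). Protease assay of ClpP1P2, read by the AMC dye that it sets free. Compounds at 50 µM. Direction is inferred from only a few compounds that gave an IC50; most scored high, so higher reads as stronger inhibition. Most other retested compounds had strongly negative values. Size under these conditions: about 69,000 compounds, about 10 of them at 50% or above in at least one test.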
B: 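Enzyme assay of CoaBC with a phosphate dye (Biomol Green) read at 650 nm. Target: Coenzyme A biosynthesis protein CoaBC, Mycobacterium tuberculosis (UniProt P9WNZ1). Tested at 30 µM. Direction is inferred from only a few compounds that gave an IC50; most scored high, so higher reads as stronger inhibition. Most strong results did not repeat in a second test. About 67,000 compounds were tested under these conditions; 0.06% (about 40) showed 50% or more at least once.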
C: 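Enzyme assay of the cytosolic lysyl-tRNA synthetase in 384-well plates, read by luminescence. Target: Lysine-tRNA ligase, Plasmodium falciparum 3D7 (UniProt Q8IDJ8). Tested at 30 µM. Higher reads as stronger inhibition, judged from the few compounds that gave an IC50. Size under these conditions: about 69,000 compounds, about 49 of them at 50% or above in at least one test.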

Each number is a percent effect as filed. The controls that fix the scale are not given in the record; negative values are as filed. Compounds were drawn at random from those tested, without regard to their results.

For CN(C)C(=O)N1C[C@H]2CN(Cc3cccc(F)c3)C(=O)[C@H]2C1 the result was A: 6.41%; B: 6.427%; C: -1.292%.
For CCn1cnnc1CNC(=O)CCC(=O)c1ccc2c(c1)OCCO2 the result was A: 7.92%; B: 2.017%; C: 4.046%.
For Cc1cccc(-c2noc([C@@H]3C[C@@H](O)CN3Cc3ccc(CO)o3)n2)c1 the result was A: -4.098%; B: 8.71%; C: -0.6204%.
For Cc1cc(C(=O)N2CCc3ncc(CN4CCOCC4)n3CC2)no1 the result was A: 1.212%; B: 6.684%; C: -9.885%.
For Cc1cccc(C2CCCN(C(=O)C3CCN(CC(N)=O)CC3)C2)c1 (stereo not given) the result was A: 0.2949%; B: 2.195%; C: -0.0856%.
For Cc1ccc(S(=O)(=O)NC(=O)CCC(F)(F)F)cc1N(C)C the result was A: -2.894%; B: -4.027%; C: 2.241%.
For CN1CC(C(=O)NCCc2ccc3c(c2)OCO3)CC1=O (stereo not given) the result was A: 4.055%; B: 5.646%; C: 3.672%.
For Cc1cc(C[C@@H]2COC[C@@H]2NC(=O)CCN2Cc3ccccc3C2)on1 the result was A: 7.403%; B: -5.556%; C: -2.036%.
For COc1ccc(-c2noc(CCC(=O)N3CCOCC3(C)C)n2)cc1 the result was A: -3.953%; B: 4.365%; C: 1.05%.
For Cn1cc(C[C@H]2[C@@H](O)CCN2C(=O)C2CCC2)cn1 the result was A: 3.22%; B: -2.316%; C: 1.38%.
For CNC(=O)[C@H]1C[C@@H]2CN(C(=O)c3occc3C)C[C@@H]2N1S(C)(=O)=O the result was A: -8.092%; B: 4.562%; C: 4.151%.
For COc1cccc(NC(=O)Cn2c(=O)nc(N)c3cc(C)sc32)c1 the result was A: -4.923%; B: 2.785%; C: 5.906%.
For N[C@H]1CN(C(=O)CCc2ccccn2)C[C@@H]1c1ccccc1 the result was A: 12.31%; B: 11.16%; C: 0.5769%.
For CCOC(=O)c1ccccc1NC(=O)CN(C)Cc1ccccc1Cl the result was A: 14.37%; B: 9.244%; C: 1.328%.
For CCC(Nc1ccc(CCN2CCOCC2)cc1)C(N)=O (stereo not given) the result was A: -1.098%; B: 1.129%; C: 0.2108%.
For Cc1ccc(CN2CCCC3(COCCN(Cc4c[nH]nn4)C3)C2)s1 (stereo not given) the result was A: 6.644%; B: -2.28%; C: -1.224%.
For Cc1cnn(CC2CCCN2C(=O)CCc2ccc3c(c2)OCO3)c1 (stereo not given) the result was A: -35.56%; B: 3.133%; C: -1.409%.
For CN(C)c1cc(CNC(=O)CC2CCCCC2)ccn1 the result was A: 7.812%; B: 10.98%; C: 5.569%.
For O=C1CCCCN1CCC(=O)N1CCCCC1c1ccc(F)cc1 (stereo not given) the result was A: -8.32%; B: 2.561%; C: 6.737%.
For CCCS(=O)(=O)N1C[C@H](N(C)Cc2ccco2)[C@@H]2OCCC[C@@H]21 the result was A: -7.257%; B: -3.09%; C: 1.766%.
For O=C(CCn1cc(Cl)cn1)N1CCN(CCOc2ccccc2)CC1 the result was A: 5.668%; B: 0.6048%; C: 0.1375%.
For Cc1c(C2N3C[C@]4(C)CN2C[C@](C)(C3)C4=O)[nH]c(=O)[nH]c1=O (stereo not given in full) the result was A: 0.6846%; B: -0.2421%; C: -2.044%.
For CN(Cc1ccccc1NCc1ncc[nH]1)C(=O)c1cccs1 the result was A: -10.08%; B: -13.94%; C: -2.077%.
For CCOCC1CC2(CCN(C(=O)c3ncccn3)CC2)CO1 (stereo not given) the result was A: 6.86%; B: 2.521%; C: 4.513%.
For COc1c(CNC2CCN(c3ccccn3)CC2)c(C(C)C)nn1C the result was A: -32.7%; B: 0.3831%; C: -0.6415%.
For COc1ccc2c(c1)nc1n2[C@@H](CNCc2ncccc2C)COC1 the result was A: -0.892%; B: 1.129%; C: 3.779%.
For CN(C)CC1(O)CCCN(C(=O)CCc2nc3cccnc3n2C)C1 (stereo not given) the result was A: -4.736%; B: 2.273%; C: 4.17%.
For CC(C)N(C(=O)Cn1nc2n(c1=O)CCCCC2)C1CCC1 the result was A: 4.549%; B: 2.184%; C: -0.381%.
For Cc1ccc(NC(=O)Nc2c[nH]c(=O)[nH]c2=O)c(C)c1 the result was A: 0.8122%; B: -5.69%; C: 0.2068%.
For Cc1noc(C)c1CN1CCN(C(=O)CCn2cncn2)CC1 the result was A: -4.754%; B: 2.17%; C: 2.89%.
For CC(C)=CCS(=O)(=O)Cc1ccn(-c2cccc(F)c2)n1 the result was A: -8.434%; B: 5.38%; C: 5.046%.
For CC(C(=O)NCC1CCCCC1)S(=O)(=O)Cc1csc(-c2cccs2)n1 (stereo not given) the result was A: 1.994%; B: -4.177%; C: 4.619%.
For COc1ccc(CCCC(=O)N2CCCC(n3cccn3)C2)cc1 (stereo not given) the result was A: 3.317%; B: -2.376%; C: -2.111%.
For CC(C)N(C)Cc1cnc2n1CCN(CCc1ccccc1)C2 the result was A: -2.137%; B: -32.09%; C: 10.18%.